# Measurements published in PMC9505254 (Pathogens, 2022).
# Test system: type-A human erythrocytes
smiles,measurement,value
O=C(O)c1cn(C2CC2)c2cc(N3CCNCC3)c(F)cc2c1=O [Ciprofloxacin],% Hemolysis Type-A Blood,0%
